Measured values from the supplement of paper PMC9135407.
Where “and” joins values, the source holds several entries; their conditions need not be identical. Identical values can stand only once. Counter-ions that a name gives are not always drawn. ± gives the standard deviation of the averaged measurements. Some of the results follow. Baselines shift from plate to plate; read single values as rough.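 Assay uses culture-activated primary human stellate myofibroblasts; lipid droplet recovery indicates inactivation. Measured: proportion of Hoechst-counted cells over a plate-specific Bodipy cutoff, duplicate wells, DMSO and nortriptyline as per-plate negative and positive controls. A hit scores, control-normalized, above the plate's top-tenth-percentile nortriptyline wells or ranks among its three best wells. Final well concentrations not reported.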

Tested on: primary human hepatic stellate cells (donor 1)
Assay: percent Bodipy-positive cells; higher = more lipid droplet accumulation
Conditions: 48 h
[1] = library stock concentration: 10 mM
[2] = library stock concentration: 1 mM
[3] = library stock concentration: 3.33 mM

**Q.** How did the “percent Bodipy-positive cells” value (library stock concentration: 5 mM) turn out when `C=C[C@H]1CN2CC[C@H]1C[C@H]2[C@H](OC(=O)OCC)c1ccnc2ccc(OC)cc12` [Quinine ethyl carbonate] was run?
**A.** 8.45 ± 8.3%

**Q.** And the “percent Bodipy-positive cells” value [1]?
**A.** 60.5 ± 11%

**Q.** Which “percent Bodipy-positive cells” value [1] does the source give for `CN1Cc2ccccc2[C@@H]2c3cccc4[nH]cc(c34)C[C@H]21` here?
**A.** 41.7 ± 4.4%

**Q.** `CCCCC[C@@H](/C=C/C=C\CCCCCCCC(=O)O)OO` was tested. Which “percent Bodipy-positive cells” value (library stock concentration: 100 uM) did it give?
**A.** 7.75 ± 7.6%

**Q.** How did the “percent Bodipy-positive cells” value (library stock concentration: 4.5 mM) turn out when `CC(C)[C@@H]1NC(=O)[C@H](C)OC(=O)[C@@H](C(C)C)NC(=O)[C@@H](C(C)C)OC(=O)[C@H](C(C)C)NC(=O)[C@H](C)OC(=O)[C@@H](C(C)C)NC(=O)[C@@H](C(C)C)OC(=O)[C@H](C(C)C)NC(=O)[C@H](C)OC(=O)[C@@H](C(C)C)NC(=O)[C@@H](C(C)C)OC1=O` [Valinomycin] was run?
**A.** 72 ± 20%

**Q.** For `N#Cc1ccc(N2CCN(C(=O)COc3ccc4[nH]cc(CCN)c4c3)CC2)cc1` [Donitriptan hydrochloride], which “percent Bodipy-positive cells” value [1] is on record?
**A.** 7.56 ± 0.86%

**Q.** How did the “percent Bodipy-positive cells” value [1] turn out when `CN(C(=O)Cc1ccc(Cl)c(Cl)c1)[C@H](CN1CCCC1)c1ccccc1.Cl` [ICI-199,441 hydrochloride] was run?
**A.** 93.8 ± 2.4%

**Q.** Which “percent Bodipy-positive cells” value [1] does the source give for `C[C@]12CC[C@H]3[C@@H](CCC4=CC(=O)CC[C@@H]43)[C@@H]1CC[C@@H]2O` [19-Nortestosterone] here?
**A.** 34.3 ± 2.6%

**Q.** `C[C@]12CC[C@H]3[C@@H](CCC4=CC(=O)CC[C@@H]43)[C@@H]1CC[C@@H]2O` [Nandrolone] was tested. Which “percent Bodipy-positive cells” value did it give?
**A.** 25.6 ± 2.2%

**Q.** How did the “percent Bodipy-positive cells” value [2] turn out when `CCCCC/C=C\C/C=C\C/C=C\C/C=C\CCCC(=O)Nc1ccc(O)cc1C` was run?
**A.** 21.7 ± 8.7%

**Q.** Which “percent Bodipy-positive cells” value does the source give for `COc1ccc(CN2CCNCC2)c(OC)c1OC` [Trimetazidine dihydrochloride] here?
**A.** 30.17 ± 0.11%

**Q.** How did the “percent Bodipy-positive cells” value [1] turn out when `COc1ccc2c(c1)c(CCN1CCOCC1)c(C)n2C(=O)c1cccc(Cl)c1Cl` was run?
**A.** 29.1 ± 3.3%

**Q.** Which results are given for `c1cc2c(cc1[C@H]1OC[C@H]3[C@@H]1CO[C@@H]3c1ccc3c(c1)OCO3)OCO2` [Sesamin]?
**A.** percent Bodipy-positive cells [3]: 7.96 ± 1.4%; percent Bodipy-positive cells [1]: 13.1 ± 2.1%

**Q.** How did the “percent Bodipy-positive cells” value [1] turn out when `c1ccc2c(N3CCNCC3)cccc2c1` [1-(1-Naphthyl)piperazine hydrochloride] was run?
**A.** 62.9 ± 6.5%

**Q.** Which “percent Bodipy-positive cells” value [1] does the source give for `CC[C@H]1CN2CC[C@H]1C[C@@H]2[C@@H](O)c1ccnc2ccc(OC)cc12` [Hydroquinidine] here?
**A.** 42.6 ± 25%

**Q.** For `CC[C@@]1(O)C[C@H](O[C@H]2C[C@H](N(C)C)[C@H](O)[C@H](C)O2)c2c(cc3c(c2O)C(=O)c2c(O)cccc2C3=O)[C@H]1C(=O)OC` [Aklavine hydrochloride], which “percent Bodipy-positive cells” value [1] is on record?
**A.** 79.9 ± 4%

**Q.** With `O=[N+]([O-])/C=C/c1ccc2c(c1)OCO2` [Syk Inhibitor III] as the compound, how does the “percent Bodipy-positive cells” value [3] read?
**A.** 81.8 ± 13%

**Q.** What does the source list for `CC(C)N(CCC(C(N)=O)(c1ccccc1)c1ccccn1)C(C)C` (configuration not stated) [Disopyramide]?
**A.** percent Bodipy-positive cells: 34.3 ± 21%; percent Bodipy-positive cells [1]: 36.9 ± 8.5%

**Q.** `N=C(N)NN` [Aminoguanidine hemisulfate] was tested. Which “percent Bodipy-positive cells” value [1] did it give?
**A.** 49.2 ± 18%

**Q.** Which “percent Bodipy-positive cells” value [1] does the source give for `N=C(N)NN` here?
**A.** 38.9 ± 17%

**Q.** Which “percent Bodipy-positive cells” value (library stock concentration: 24 mM) does the source give for `Clc1ccc(C2CC3CCC2N3)cn1` (configuration not stated) here?
**A.** 19.9 ± 0.81%

**Q.** For `C[C@H](N)[C@H](O)c1ccc(O)c(O)c1` [Levonordefrin], which “percent Bodipy-positive cells” value is on record?
**A.** 9.48 ± 4.3%

**Q.** What about the “percent Bodipy-positive cells” value [1] of the same compound?
**A.** 21.7 ± 0.58%

**Q.** What about the “percent Bodipy-positive cells” value (library stock concentration: 10.9 mM) of the same compound?
**A.** 2.14 ± 1.2%

**Q.** `CCCCCCC[n+]1ccc(-c2cc[n+](CCCCCCC)cc2)cc1` [DHBP dibromide] was tested. Which “percent Bodipy-positive cells” value [1] did it give?
**A.** 7.48 ± 2.4%

**Q.** Which “percent Bodipy-positive cells” value [1] does the source give for `C=CCN1C[C@H](C)N([C@H](c2ccc(C(=O)N(CC)CC)cc2)c2cccc(OC)c2)C[C@H]1C` here?
**A.** 51.8% and 33.2%

**Q.** How did the “percent Bodipy-positive cells” value [1] turn out when `C=CCN1C[C@H](C)N([C@H](c2ccc(C(=O)N(CC)CC)cc2)c2cccc(O)c2)C[C@H]1C` was run?
**A.** 17.8 ± 8.3%

**Q.** Which “percent Bodipy-positive cells” value (library stock concentration: 6.6 mM) does the source give for `N[C@@H](Cc1ccc(N(CCCl)CCCl)cc1)C(=O)O` [Melphalan] here?
**A.** 11.5% and 5.07%

**Q.** For `Clc1ccc(C2=CCCC3CCC2N3)cn1` (configuration not stated) [UB 165 fumarate], which “percent Bodipy-positive cells” value [1] is on record?
**A.** 11 ± 1.3%

**Q.** `CC(C)=CCOc1c2occc2cc2ccc(=O)oc12` [Imperatorin] was tested. Which “percent Bodipy-positive cells” value [1] did it give?
**A.** 41.4% and 24.9%

**Q.** For `CCN1C[C@]2(C)CC[C@H](OC)[C@@]34C1[C@]1(OCO[C@@]15C[C@H](OC)[C@H]1C[C@]3(O)[C@@H]5[C@H]1OC)[C@@H](OC(C)=O)[C@H]24` [Deltaline], which “percent Bodipy-positive cells” value is on record?
**A.** 9.8 ± 2.4%

**Q.** `CC(Cc1ccc(OCC(=O)O)cc1)NCC(O)c1cccc(Cl)c1` (configuration not stated) was tested. Which “percent Bodipy-positive cells” value [1] did it give?
**A.** 36.9 ± 0.37%

**Q.** For `OC1CCCCC1N1CCC(c2ccccc2)CC1` (configuration not stated) [Vesamicol hydrochloride], which “percent Bodipy-positive cells” value (library stock concentration: 6.8 mM) is on record?
**A.** 19.7 ± 1.1%

**Q.** And the “percent Bodipy-positive cells” value [1]?
**A.** 42.9 ± 4.9%

**Q.** `C[C@H]1O[C@H](O[C@H]2[C@H](O)[C@@H](O)[C@@H](O)[C@H](O)[C@@H]2O)[C@@H](N)C[C@@H]1NC(=N)C(=O)O` [Kasugamycin hydrochloride] was tested. Which “percent Bodipy-positive cells” value [1] did it give?
**A.** 19.8 ± 3.9%

**Q.** Which “percent Bodipy-positive cells” value (library stock concentration: 5.3 mM) does the source give for `C[C@H]1O[C@H](O[C@H]2[C@H](O)[C@@H](O)[C@@H](O)[C@H](O)[C@@H]2O)[C@@H](N)C[C@@H]1NC(=N)C(=O)O` [Kasugamycin] here?
**A.** 7.77 ± 1.9%

**Q.** `NCCc1ccc(S(=O)(=O)F)cc1` [4-(2-Aminoethyl)benzenesulfonyl fluoride hydrochloride] was tested. Which “percent Bodipy-positive cells” value [1] did it give?
**A.** 55.5 ± 11%

**Q.** With `NCCc1ccc(S(=O)(=O)F)cc1` as the compound, how does the “percent Bodipy-positive cells” value [3] read?
**A.** 27.2 ± 1.1%

**Q.** And the “percent Bodipy-positive cells” value [1]?
**A.** 30 ± 3.1%

**Q.** `O=C1CN=C(c2ccccc2Cl)c2cc([N+](=O)[O-])ccc2N1` [Clonazepam] was tested. Which “percent Bodipy-positive cells” value (library stock concentration: 6.3 mM) did it give?
**A.** 11.7 ± 1.7%

**Q.** Which “percent Bodipy-positive cells” value [1] does the source give for `O=C(O)Cc1cccnc1C(=O)O` [Homoquinolinic acid] here?
**A.** 7.13 ± 0.43%

**Q.** For `CCCCC/C=C\C/C=C\C/C=C\C/C=C\CCCC(=O)N[C@@H](C)CO` [S-1 Methanandamide], which “percent Bodipy-positive cells” value [2] is on record?
**A.** 6.9 ± 2.4%

**Q.** `CN[C@@H]1C[C@@H](c2ccc(Cl)c(Cl)c2)c2ccccc21` [Indatraline hydrochloride] was tested. Which “percent Bodipy-positive cells” value [1] did it give?
**A.** 100% and 83.2%

**Q.** `O=[N+]([O-])c1cc(O)c(O)c([N+](=O)[O-])c1` was tested. Which “percent Bodipy-positive cells” value [1] did it give?
**A.** 8.35 ± 1.7%

**Q.** `O=[N+]([O-])c1cc(O)c(O)c([N+](=O)[O-])c1` [3,5-Dinitrocatechol] was tested. Which “percent Bodipy-positive cells” value [1] did it give?
**A.** 47.7 ± 11%
